Results are given in words; binding and its absence hold for the method and conditions named. In cells and extracts the contact can be indirect. Some binding calls cover weakened binding; strength is not graded here. Sequences can lack the tags named with a protein.
What was measured:
[1] = target: T1, human immunoglobin Fc fusion form of the cysteine-rich domain (CRD) of mouse Fzd8 (mouse; human) (UniProt Q61091); assay: co-transfection in 293T cells, co-immunoprecipitation, western blot
T1 sequence (looked up): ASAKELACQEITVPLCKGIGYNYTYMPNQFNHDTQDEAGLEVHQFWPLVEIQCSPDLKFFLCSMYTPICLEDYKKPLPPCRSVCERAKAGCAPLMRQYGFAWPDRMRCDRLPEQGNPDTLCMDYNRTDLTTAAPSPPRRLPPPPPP

Protein sequences, listed by entry. Tags and fused reporters are not part of them. Residues count along the entry.
UniProt O75581, residues 20-1370: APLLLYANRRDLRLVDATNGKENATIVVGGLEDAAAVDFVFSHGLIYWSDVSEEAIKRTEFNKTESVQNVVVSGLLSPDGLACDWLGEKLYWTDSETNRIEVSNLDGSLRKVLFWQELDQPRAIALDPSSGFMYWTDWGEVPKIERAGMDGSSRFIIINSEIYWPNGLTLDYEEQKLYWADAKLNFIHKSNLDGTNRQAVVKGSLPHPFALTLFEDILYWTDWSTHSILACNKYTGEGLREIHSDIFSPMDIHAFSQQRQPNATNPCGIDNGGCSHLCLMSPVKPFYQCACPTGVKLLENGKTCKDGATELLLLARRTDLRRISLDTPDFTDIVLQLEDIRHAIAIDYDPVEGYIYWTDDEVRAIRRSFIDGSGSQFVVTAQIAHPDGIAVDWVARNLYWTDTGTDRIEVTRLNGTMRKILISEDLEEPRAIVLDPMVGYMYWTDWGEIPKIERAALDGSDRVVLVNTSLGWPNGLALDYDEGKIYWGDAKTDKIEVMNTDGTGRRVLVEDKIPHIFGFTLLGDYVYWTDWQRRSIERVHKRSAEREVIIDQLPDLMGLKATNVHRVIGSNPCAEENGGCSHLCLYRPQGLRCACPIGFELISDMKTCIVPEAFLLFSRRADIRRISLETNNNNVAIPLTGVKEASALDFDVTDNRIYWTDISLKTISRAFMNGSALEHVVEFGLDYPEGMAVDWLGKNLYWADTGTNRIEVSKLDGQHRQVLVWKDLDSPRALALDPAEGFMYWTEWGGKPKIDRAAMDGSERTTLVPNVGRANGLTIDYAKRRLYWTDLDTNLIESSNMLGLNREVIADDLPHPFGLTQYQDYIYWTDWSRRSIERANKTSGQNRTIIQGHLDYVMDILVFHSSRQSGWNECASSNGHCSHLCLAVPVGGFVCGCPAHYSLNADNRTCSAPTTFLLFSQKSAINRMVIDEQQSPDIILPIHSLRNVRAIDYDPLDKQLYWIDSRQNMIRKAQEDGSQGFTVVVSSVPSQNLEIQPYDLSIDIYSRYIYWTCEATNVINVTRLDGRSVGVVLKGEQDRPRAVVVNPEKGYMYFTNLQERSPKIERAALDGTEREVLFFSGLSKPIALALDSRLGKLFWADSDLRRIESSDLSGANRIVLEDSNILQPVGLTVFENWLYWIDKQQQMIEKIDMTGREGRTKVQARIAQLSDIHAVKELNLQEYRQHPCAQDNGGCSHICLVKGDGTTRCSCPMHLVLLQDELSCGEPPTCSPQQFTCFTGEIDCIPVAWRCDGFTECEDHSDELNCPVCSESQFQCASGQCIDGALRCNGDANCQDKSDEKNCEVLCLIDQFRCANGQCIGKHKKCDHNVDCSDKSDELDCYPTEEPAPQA

[2] = target: human immunoglobin Fc fusion form of the extracellular domain of human LRP6 (human) (UniProt O75581); assay: as above
[3] = target: T1, human immunoglobin Fc fusion form of the cysteine-rich domain (CRD) of mouse Fzd8 (mouse; human); assay: co-immunoprecipitation from co-transfected cells (FIG. 6A legend)
[4] = target: human immunoglobin Fc fusion form of the extracellular domain of human LRP6 (human) (UniProt O75581); assay: as above
[5] = target: T1, human immunoglobin Fc fusion form of the cysteine-rich domain (CRD) of mouse Fzd8 (mouse; human); assay: cell-free pull-down (FIG. 6B legend)
[6] = target: human immunoglobin Fc fusion form of the extracellular domain of human LRP6 (human) (UniProt O75581); assay: cell-free pull-down (FIG. 6B legend)
[7] = target: T1, human immunoglobin Fc fusion form of the cysteine-rich domain (CRD) of mouse Fzd8 (mouse; human); assay: cell-free pull-down on protein A-sepharose beads, western blot
[8] = target: human immunoglobin Fc fusion form of the extracellular domain of human LRP6 (human) (UniProt O75581); assay: as above

Measured: binding

B1: mouse R-spondin3 tagged with the HA epitope (ligand, not shown: small tags and cut ends)
chain: QNASRGRRQRRMHPNVSQGCQGGCATCSDYNGCLSCKPRLFFVLERIGMKQIGVCLSSCPSGYYGTRYPDINKCTKCKVDCDTCFNQNFCTKCKSGFYLHLGKCLDSCPEGLEANNHTMECVSIVHCEASEWSPWSPCMKKGKTCGFKRGTETRVRDILQHPSAKGNLCPPTSETRTCIVQRKKCSKGERGKKGRERKRKKLNKEERKETSSSSDSKGLESSIETPDQQENKERQQQQKRRARDKQQKSVSVSTVH
binds: [1] | [2] | [3] | [4]

B2: Histidine-tagged R-spondin3 protein (ligand, not shown: small tags and cut ends)
chain: QNASRGRRQRRMHPNVSQGCQGGCATCSDYNGCLSCKPRLFFVLERIGMKQIGVCLSSCPSGYYGTRYPDINKCTKCKVDCDTCFNQNFCTKCKSGFYLHLGKCLDSCPEGLEANNHTMECVSIVHCEASEWSPWSPCMKKGKTCGFKRGTETRVRDILQHPSAKGNLCPPTSETRTCIVQRKKCSKGERGKKGRERKRKKLNKEERKETSSSSDSKGLESSIETPDQQENKERQQQQKRRARDKQQKSVSVSTVH
binds: [5] | [6] | [7] | [8]

From patent publication US20070059829A1
